Test results taken from the supplement of paper PMC3334620.
In all, about 33,000 sequences were measured (“E-score (-0.5 to 0.5)”: median about -0.0059, highest 2% from about 0.26 on). The list shows a part of the results.

Each sequence was assayed against T1, Cin5 (UniProt P40917) (assay: PBM E-score (8-mer binding enrichment) (E-score (-0.5 to 0.5)); higher = stronger / more preferred TF binding). Conditions: protein concentration: 100 nM; construct: GST-full length.
T1 sequence: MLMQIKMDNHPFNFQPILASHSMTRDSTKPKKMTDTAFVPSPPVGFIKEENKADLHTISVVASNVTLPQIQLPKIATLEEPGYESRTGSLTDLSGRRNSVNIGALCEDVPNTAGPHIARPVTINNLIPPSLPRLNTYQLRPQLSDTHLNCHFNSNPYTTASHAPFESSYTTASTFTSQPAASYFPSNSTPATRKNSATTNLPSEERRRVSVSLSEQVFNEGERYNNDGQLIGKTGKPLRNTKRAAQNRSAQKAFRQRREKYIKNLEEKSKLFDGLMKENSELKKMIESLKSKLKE
Outline: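 The E-score, a modified Wilcoxon-Mann-Whitney statistic, was computed by the Universal PBM Analysis Suite for every ungapped eight-base word pooled with its reverse complement. Scans behind it were normalised with masliner after bound GST-tagged yeast transcription factors were detected with fluorescent anti-GST. The proteins, at about 100-200 nM, had been applied to universal all-10-mer Agilent arrays made double-stranded by primer extension.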

Sequence | PBM E-score
ACTTACTC | 0.0331
CATTAGAA | 0.104
CATAAGTA | 0.0709
ACACACCT | 0.132
CGACCGCG | 0.0264
CGCCTGAG | -0.0649
GAAATAAA | 0.172
AATGGTAA | 0.233
CAAACTGA | 0.0485
CCACCCCA | 0.0803
ATATTACG | 0.376
CGGACGCA | -0.114
ACGATGAG | 0.112
GTGTGCAA | -0.0627
GAGACATA | 0.22
CGATCACA | 0.171
GCTGTTGA | 0.0963
CCCTAATA | -0.00922
GCATTCAA | 0.0678
ACTCCCAA | 0.0288
CTCGAAAG | -0.0648
CGTTCTAG | -0.0174
CTAGACAG | 0.0214
ACTAGTAC | -0.00793
CAATGACA | 0.115

Sequence | PBM E-score
CTACAGCA | -0.12
GAGACCAA | 0.118
AATTAAGA | 0.0155
GATCTTCA | 0.0772
ACTAAAAA | 0.0836
GCCTTTTA | -0.161
CAGCCTTC | -0.128
GTACTGGA | 0.116
ACGTTGGA | -0.0955
AGTCCCGC | -0.143
CCCTAACA | 0.115
GAACGTAA | 0.297
GAGTCTGC | -0.287
AAGCTGTC | -0.0169
ACCTGCGC | 0.0121
AGGGACGC | -0.208
AGGCATCG | -0.244
AACGAGAT | 0.118
AGGCCCTC | -0.204
CCAAGTAC | -0.00446
AGAACGTC | -0.057
GATTCTCA | 0.126
AAAACACT | 0.0413
CTTCACTC | 0.0913
GGCTTACC | 0.169

A different layout for part of the listing above:
Sequence,PBM E-score
GCATTCAA,0.0678
ACTCCCAA,0.0288
CTCGAAAG,-0.0648

(cont.)

Sequence | PBM E-score
CGTTAAGC | -0.0568
GAGGGCCA | -0.21
AAAACGCC | -0.0523
CTGTTGCA | 0.136
AGACTGGC | -0.251
GCTATCTA | -0.102
ACCTCTTC | 0.0737
GACCTCAC | -0.0133
CATCGTTA | -0.0312
TCCCAGCA | 0.00752
ATTCATTA | 0.122
CATTGTGG | -0.00112
CGGTATAA | 0.173
CGGGTTTC | 0.11
AAGCCGTG | -0.0435
AACAGATT | 0.0388
ATATCCTG | -0.0502
CGGTTAAC | -0.0698
AGGCCTAC | 0.0625
TAGCCGCA | -0.173
GTCATGGA | -0.0103
ACAAATGC | 0.133
CGGAAACC | -0.0102
AGAAAACA | 0.0208
AAAGGACA | 0.0242

Seven successive records from above, quoted:
Sequence | PBM E-score
CTTCACTC | 0.0913
GGCTTACC | 0.169
CGTTAAGC | -0.0568
GAGGGCCA | -0.21
AAAACGCC | -0.0523
CTGTTGCA | 0.136
AGACTGGC | -0.251

Later entries.

Sequence | PBM E-score
AACGGGGT | -0.179
GTAAAGAC | 0.145
ATTAATTC | 0.238
AGGGATCA | -0.00959
AGCAACCC | -0.0945
CACTGAGC | -0.0573
GTGAGAAC | -0.076
CCCTCAAA | -0.0604
GCCCTGAC | -0.182
TACACTGA | 0.0659
GAAGCGAA | -0.0046
ACAGACTG | -0.0597
ATGATTAA | 0.256
TCACACGA | 0.0679
AGTATCGG | -0.0518
ACATTCGT | 0.1
CAATTAGG | 0.0254
CTCCAATA | 0.0927
ACAAAGGA | 0.148
ATCGGCCG | -0.179
CACCTATA | 0.0663
AGACGTCG | -0.128
GACGGTAA | -0.0417
GGCCTGAA | -0.222
ACTTGTCG | -0.00214

Sequence | PBM E-score
CAATCAAC | 0.203
GGAAACCA | -0.0564
AAATGTAA | 0.14
AGTTTCTC | -0.0286
GAAGGACA | -0.0373
ACAGCGTA | -0.0981
ACTCTACG | -0.144
AGTGACAG | -0.0297
GATCAGAA | -0.0634
ATACCCCG | 0.0236
CATTCAGC | 0.0234
AAGGGCAA | -0.0726
CATGTCCA | 0.0503
CTACCCAA | -0.00884
GTCGCGCA | -0.0445
CTACAAAG | -0.0388
CAGCTATG | -0.161
CATGGACA | -0.178
AACAGGCG | -0.132
GCGTGGCA | -0.204
ATAATGTA | 0.251
CAGTGTTA | 0.241
ACCCGACC | -0.123
GATCGACC | -0.113
TAGGGCAA | -0.0426

Part of the list above, set out differently:
Sequence	PBM E-score
AAGGGCAA	-0.0726
CATGTCCA	0.0503

(listing goes on)

Sequence | PBM E-score
CAGTCATA | 0.037
CCGCTTGA | -0.108
GCCCTCCC | -0.317
AGCGATAT | 0.184
CAAAATAC | 0.0689
CCAATTGA | 0.143
GTTATTCA | 0.143
ATGCACTA | -0.0624
GACCCAAA | 0.04
CGCCACCC | -0.091
GGCAAGAC | -0.0509
TAAGTGAA | 0.179
ATCACCTG | 0.148
ACTCTGCA | 0.149
GCGAGCCA | -0.0133
CAGATCGG | -0.0356
CGTACAGC | -0.104
ATTATTGG | 0.151
CCTAGATC | -0.0288
GCTAAAGC | -0.125
ATGGACAT | 0.00653
CCTCTTTA | -0.155
GTAGTGTA | -0.01
CCCGTAAG | 0.0415
ACCATTTC | 0.0809

Sequence | PBM E-score
AACCCATC | 0.0393
CAGAAATG | 0.0485
GGGTGAGA | -0.215
CGGTTCAG | -0.33
CTCCCGAC | -0.204
AAGGCTTC | -0.101
GCGCAGAC | -0.178
CCAGAAGA | -0.107
CCTTTCAA | -0.0565
ACGCGATG | 0.0661
CCTACAAG | -0.23
GAGAGATA | 0.0117
ATGATAGA | -0.0131
CGACTCTA | -0.0916
ACCAAACA | 0.156
CCCTGACC | -0.0906
CACCACAG | 0.00324
ACAGCCCC | -0.145
AGGATCAC | 0.146
CCCTCAAG | -0.181
CTGACGTA | 0.278
CTCGGTGA | -0.132
